{
  "source": "patent US6783761B2",
  "about": "“Chimeric peptide immunogens” (Aphton Corporation, priority 2000, dated 2004)",
  "system": "GnRH",
  "format": "in vivo",
  "settings": "rabbits",
  "note": "For at least one compound, name, drawing or mass did not settle the structure.",
  "data": [
    {"smiles": "CC[C@H](C)[C@H](NC(=O)CNC(=O)[C@@H](NC(=O)[C@H](Cc1ccccc1)NC(=O)[C@H](CCCCN)NC(=O)[C@H](CO)NC(=O)[C@H](CC(N)=O)NC(=O)[C@H](C)NC(=O)[C@H](CCCCN)NC(=O)[C@@H](NC(=O)[C@H](Cc1ccc(O)cc1)NC(=O)[C@@H](N)CCC(N)=O)[C@@H](C)CC)[C@@H](C)CC)C(=O)N[C@H](C(=O)N[C@@H](CCC(=O)O)C(=O)N[C@@H](CC(C)C)C(=O)NCC(=O)N1CCC[C@H]1C(=O)N[C@@H](CO)C(=O)N[C@@H](CC(C)C)C(=O)N[C@@H](Cc1c[nH]cn1)C(=O)N[C@@H](Cc1c[nH]c2ccccc12)C(=O)N[C@@H](CO)C(=O)N[C@@H](Cc1ccc(O)cc1)C(=O)NCC(=O)N[C@@H](CC(C)C)C(=O)N[C@@H](CCCNC(=N)N)C(=O)N1CCC[C@H]1C(=O)NCC(N)=O)[C@@H](C)O", "note": "[Peptide 3]", "values": [
      {"measurement": "anti-GnRH antibody response (immunogenicity), in words", "result": "significantly higher antibody titers in comparison with the other chimera peptides"}
    ]}
  ]
}
